Data as given in PubChem BioAssay AID1259308 (NCATS, 2017).

- Screen: 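Knock-downs that increase output of a recombinant reporter protein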 (primary screen)
- Cells: human HEK293 embryonic kidney cells stably expressing firefly luciferase (HEK-CMV-Luc2-Hygro)
- Reagents: single siRNA against human genes, 0.8 pmol siRNA per well
- Time to read-out: 72 h
- Read-out: 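Luciferase light (ONE-Glo) measured on one replicate plate set and viability (CellTiter-Glo) on the other, scaled to a negative control siRNA, with robust z-scores and luciferase per cell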
- Direction: total luciferase, z-score: higher = more reporter protein produced
- Hit rule: 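An siRNA counts as active if its total luciferase robust z-score exceeds 3; genes with two or more such siRNAs out of three were retested with fresh siRNAs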
- Calls: active = raised luciferase; inactive = no rise
The whole screen tested about 59,000 reagents; shown is a part drawn at random. Of all reagents, about 1,510 (2.6%) were called active. 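Calls use total luciferase alone and ignore viability, so some active siRNAs may act by altering cell number.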 Reagents against one gene are numbered here. Further read-outs or replicates are left out here.

| target | reagent | total luciferase, z-score | outcome |
| --- | --- | --- | --- |
| CACNA1H (calcium voltage-gated channel subunit alpha1 H) | 1 | -1.19 | inactive |
| CACNA1H (calcium voltage-gated channel subunit alpha1 H) | 2 | 1.52 | inactive |
| CACNA1H (calcium voltage-gated channel subunit alpha1 H) | 3 | -0.727 | inactive |
| MNX1 (motor neuron and pancreas homeobox 1) | 1 | -0.125 | inactive |
| MNX1 (motor neuron and pancreas homeobox 1) | 2 | -0.385 | inactive |
| MNX1 (motor neuron and pancreas homeobox 1) | 3 | -1.25 | inactive |
| BARX1 (BARX homeobox 1) | 1 | 3.68 | active |
| BARX1 (BARX homeobox 1) | 2 | -1.84 | inactive |
| BARX1 (BARX homeobox 1) | 3 | -1 | inactive |
| DEUP1 (deuterosome assembly protein 1) | 1 | -0.996 | inactive |
| DEUP1 (deuterosome assembly protein 1) | 2 | -0.516 | inactive |
| DEUP1 (deuterosome assembly protein 1) | 3 | -0.522 | inactive |
| MGAM (maltase-glucoamylase) | 1 | 0.966 | inactive |
| MGAM (maltase-glucoamylase) | 2 | -0.394 | inactive |
| MGAM (maltase-glucoamylase) | 3 | -0.254 | inactive |
| GPR61 (G protein-coupled receptor 61) | 1 | -0.14 | inactive |
| GPR61 (G protein-coupled receptor 61) | 2 | 0.135 | inactive |
| GPR61 (G protein-coupled receptor 61) | 3 | -0.395 | inactive |
| LOXL4 (lysyl oxidase like 4) | 1 | -1.3 | inactive |
| LOXL4 (lysyl oxidase like 4) | 2 | 0.272 | inactive |
| LOXL4 (lysyl oxidase like 4) | 3 | -0.793 | inactive |

The list goes on, starting with the last 6 of the part before.
| target | reagent | total luciferase, z-score | outcome |
| --- | --- | --- | --- |
| GPR61 (G protein-coupled receptor 61) | 1 | -0.14 | inactive |
| GPR61 (G protein-coupled receptor 61) | 2 | 0.135 | inactive |
| GPR61 (G protein-coupled receptor 61) | 3 | -0.395 | inactive |
| LOXL4 (lysyl oxidase like 4) | 1 | -1.3 | inactive |
| LOXL4 (lysyl oxidase like 4) | 2 | 0.272 | inactive |
| LOXL4 (lysyl oxidase like 4) | 3 | -0.793 | inactive |
| WDR31 (WD repeat domain 31) | 1 | -1.07 | inactive |
| WDR31 (WD repeat domain 31) | 2 | 0.322 | inactive |
| WDR31 (WD repeat domain 31) | 3 | -0.64 | inactive |
| LIPK (lipase family member K) | 1 | 0.413 | inactive |
| LIPK (lipase family member K) | 2 | 0.25 | inactive |
| LIPK (lipase family member K) | 3 | -0.634 | inactive |
| GPCPD1 (glycerophosphocholine phosphodiesterase 1) | 1 | -1.28 | inactive |
| GPCPD1 (glycerophosphocholine phosphodiesterase 1) | 2 | -0.423 | inactive |
| GPCPD1 (glycerophosphocholine phosphodiesterase 1) | 3 | 1.76 | inactive |
| REPS1 (RALBP1 associated Eps domain containing 1) | 1 | -0.108 | inactive |
| REPS1 (RALBP1 associated Eps domain containing 1) | 2 | -1.37 | inactive |
| REPS1 (RALBP1 associated Eps domain containing 1) | 3 | 0.291 | inactive |
| RABGGTB (Rab geranylgeranyltransferase subunit beta) | 1 | -0.46 | inactive |
| RABGGTB (Rab geranylgeranyltransferase subunit beta) | 2 | -0.121 | inactive |
| RABGGTB (Rab geranylgeranyltransferase subunit beta) | 3 | -0.446 | inactive |
| DESI1 (desumoylating isopeptidase 1) | 1 | -0.242 | inactive |
| DESI1 (desumoylating isopeptidase 1) | 2 | 0.427 | inactive |
| DESI1 (desumoylating isopeptidase 1) | 3 | 0.616 | inactive |
| PSG11 (pregnancy specific beta-1-glycoprotein 11) | 1 | -0.261 | inactive |
| PSG11 (pregnancy specific beta-1-glycoprotein 11) | 2 | 0.861 | inactive |
| PSG11 (pregnancy specific beta-1-glycoprotein 11) | 3 | 2.77 | inactive |
| GUCA1A (guanylate cyclase activator 1A) | 1 | -1.46 | inactive |
| GUCA1A (guanylate cyclase activator 1A) | 2 | 0.854 | inactive |
| GUCA1A (guanylate cyclase activator 1A) | 3 | -0.655 | inactive |
| MCM7 (minichromosome maintenance complex component 7) | 1 | 0.174 | inactive |
| MCM7 (minichromosome maintenance complex component 7) | 2 | 0.401 | inactive |
| MCM7 (minichromosome maintenance complex component 7) | 3 | -2.4 | inactive |
| PARD3B (par-3 family cell polarity regulator beta) | 1 | -0.658 | inactive |
| PARD3B (par-3 family cell polarity regulator beta) | 2 | -0.683 | inactive |
| PARD3B (par-3 family cell polarity regulator beta) | 3 | 1.77 | inactive |
| NPY1R (neuropeptide Y receptor Y1) | 1 | 2.08 | inactive |
| NPY1R (neuropeptide Y receptor Y1) | 2 | 0.115 | inactive |
| NPY1R (neuropeptide Y receptor Y1) | 3 | 0.219 | inactive |
| SOX9-AS1 (SOX9 antisense RNA 1) | 1 | -1.07 | inactive |
| SOX9-AS1 (SOX9 antisense RNA 1) | 2 | -0.00124 | inactive |
| SOX9-AS1 (SOX9 antisense RNA 1) | 3 | 1.76 | inactive |
| SOX9-AS1 (SOX9 antisense RNA 1) | 4 | 0.358 | inactive |
| SOX9-AS1 (SOX9 antisense RNA 1) | 5 | 1.06 | inactive |
| SOX9-AS1 (SOX9 antisense RNA 1) | 6 | 2.49 | inactive |
